The record followed here is the supplement of paper PMC3334620.

Over roughly 33,000 sequences, “E-score (-0.5 to 0.5)” has its median near -0.0059; the highest 2% begin near 0.26. This is one part of the list.

This assay has as its target T1, Cin5 (UniProt P40917).
T1 sequence: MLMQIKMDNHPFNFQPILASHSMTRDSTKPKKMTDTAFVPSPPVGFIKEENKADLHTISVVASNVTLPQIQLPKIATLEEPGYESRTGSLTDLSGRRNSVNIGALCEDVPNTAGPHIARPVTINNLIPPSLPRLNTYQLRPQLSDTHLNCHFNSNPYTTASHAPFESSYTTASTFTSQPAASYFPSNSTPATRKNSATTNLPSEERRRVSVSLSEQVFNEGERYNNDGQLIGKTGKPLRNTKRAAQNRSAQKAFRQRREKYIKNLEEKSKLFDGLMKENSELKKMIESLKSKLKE
The assay is described as follows: PBM E-score (8-mer binding enrichment) (E-score (-0.5 to 0.5)); higher = stronger / more preferred TF binding. The settings on record: protein concentration: 100 nM; construct: GST-full length. On the procedure:
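Universal 'all 10-mer' protein binding microarrays (Agilent AMADID 015681) probed with GST-tagged S. cerevisiae TFs (full-length or DBD) made by in vitro transcription/translation (PURExpress), about 100-200 nM. Bound TF was detected with fluorescent anti-GST. Each ungapped 8-mer (which stands for itself and its reverse complement) is scored by the PBM enrichment score (E-score), a modified Wilcoxon-Mann-Whitney statistic from -0.5 to +0.5, computed with the Universal PBM Analysis Suite. Scale: above 0.35 generally sequence-specific binding.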
In the case of AAGGGAGC, the “PBM E-score” value is -0.226.
The value for AAGCATGT was 0.18; that for GATAAAGC was 0.00527; that for CCCAGTCA was -0.156.
The value for CCGGATCC was 0.0723; that for GGGTGTAC was 0.00026.
The value for ACCTGACA was 0.0412; that for ACTATGTG was 0.0904.
As for ATTACTGG, the “PBM E-score” value came to 0.107.
The value for GTAGTCGA was -0.0121; that for AGTACATG was 0.118; that for AGCGCAGG was -0.123.
The result for ACAGTCTC reads -0.0599; that for CGATCACG, 0.117.
Consider CGGCCACG, for which the “PBM E-score” value is -0.193.
The result for CGCGAAGC reads 0.105; that for CAGCAGGC, -0.126.
The value for CGGACTAC was 0.0428; that for ACTTAGAG was -0.164.
The result for GCACCTTA reads -0.0198; that for CAGGATTC, -0.0465.
Turning to GGAATTGA, the “PBM E-score” value stood at 0.199.
The value for ACTAATGA was 0.196; that for ATTGAAAC was 0.174; that for TCCGCTCA was -0.0629.
The result for CACTCGTA reads -0.12.
The result for GGGTTACA reads -0.0584; that for ACGTATTA, 0.298.
As to ATCCTACC, the “PBM E-score” value is -0.0227.
The result for CTCGCAGA reads -0.172.
For AGCCGGTG, the “PBM E-score” value was -0.0851.
The value for GAGGGTAC was -0.147.
The result for AGGTGATC reads 0.109; that for ACGTCCAT, -0.0491; that for TAGAACTA, 0.0399.
The result for CGGCAATA reads 0.182; that for AGCCAGGC, -0.0681.
As for CCTACGTA, the “PBM E-score” value is 0.122.
As for CTGGATCA, the “PBM E-score” value was -0.031.
The value for AAATGGCG was 0.021; that for CGAATTCA was 0.0951; that for TGATCACA was 0.0609.
The result for GGAGTTCA reads -0.0752; that for AGCAATGA, 0.13; that for AGCAACGG, 0.198.
The value for ATGAGGCG was -0.14.
As for ATCGGTTG, the “PBM E-score” value was 0.0626.
The value for CTGGGGGC was -0.397; that for ACGATAGT was 0.103.
The result for TCGTCGCA reads 0.0856; that for AACGAACT, -0.0164.
The result for GAGCTGCC reads -0.163; that for CGGAAAGA, 0.188.
Take CCAAACTA: the “PBM E-score” value stood at 0.174.
As for GACACTGC, the “PBM E-score” value is -0.127.
The value for CCATAACC was 0.00089.
The value for ACTCACGA was -0.0161.
The value for ATTTTTAG was -0.0483.
In the case of AAGGAGCA, the “PBM E-score” value was -0.132.
The value for CACAATCC was 0.0827; that for CTCGACAG was -0.103; that for CTGGTGTC was 0.00482.
For the sequence AATCTCAT, the “PBM E-score” value turned out to be 0.157.
The result for CTAGGGGA reads -0.169; that for CAGTCACA, -0.0381; that for CCGTCTGC, -0.0138.
As for AAATGTCG, the “PBM E-score” value was 0.0976.
Turning to AGCCAAAT, the “PBM E-score” value amounted to 0.0853.
The value for TATTACAA was 0.189; that for ATGCGGTA was -0.053.
The value for ACAACGAG was -0.0409.
The value for GATATGCC was 0.0475.
Consider CGAGAACA, for which the “PBM E-score” value was 0.0489.
The value for CCGTGGTC was -0.148; that for GGAAGCCA was -0.251.
The result for CCGCACCA reads 0.0126.
The result for CAGATAGA reads -0.122; that for CCGAGCAA, -0.0639; that for CGTAGTGC, -0.0666.
Take CCAAGAGC: the “PBM E-score” value is -0.149.
Regarding ATAGGCTC, the “PBM E-score” value is -0.0723.
Regarding CCGAAACG, the “PBM E-score” value is -0.102.
The result for CCGGGAGA reads -0.0997; that for CCCCAGTA, 0.00957; that for GTCTTAAC, -0.0459.
The value for CAATTTAC was 0.144.
